From article PMC7032569
These are yes or no findings as the source states them, for the method shown. In cells and extracts the contact can be indirect. Some results given as binding are weak or reduced against the parent protein; the word gives no strength.

Experiments:
[1] = target: Recombinant 4EBP1-GST fusion protein, wild type (human) (UniProt Q13541); experiment: pull-down; lysates of A549 cells incubated with purified wild-type or mutant 4EBP1-GST, pull-down (legend: streptavidin), blots with anti-TG2 and anti-eIF4E; only the target purified
[2] = target: Polyamination-defective 4EBP1-GST (Q28,95,113A) (human) (UniProt Q13541); experiment: as above

binding [1]: binds | binding [2]: binds
B1: Transglutaminase 2 (TG2), endogenous in A549 cells (enzyme, UniProt P21980 1-687)
chain: MAEELVLERCDLELETNGRDHHTADLCREKLVVRRGQPFWLTLHFEGRNYEASVDSLTFSVVTGPAPSQEAGTKARFPLRDAVEEGDWTATVVDQQDCTLSLQLTTPANAPIGLYRLSLEASTGYQGSSFVLGHFILLFNAWCPADAVYLDSEEERQEYVLTQQGFIYQGSAKFIKNIPWNFGQFEDGILDICLILLDVNPKFLKNAGRDCSRRSSPVYVGRVVSGMVNCNDDQGVLLGRWDNNYGDGVSPMSWIGSVDILRRWKNHGCQRVKYGQCWVFAAVACTVLRCLGIPTRVVTNYNSAHDQNSNLLIEYFRNEFGEIQGDKSEMIWNFHCWVESWMTRPDLQPGYEGWQALDPTPQEKSEGTYCCGPVPVRAIKEGDLSTKYDAPFVFAEVNADVVDWIQQDDGSVHKSINRSLIVGLKISTKSVGRDEREDITHTYKYPEGSSEEREAFTRANHLNKLAEKEETGMAMRIRVGQSMNMGSDFDVFAHITNNTAEEYVCRLLLCARTVSYNGILGPECGTKYLLNLNLEPFSEKSVPLCILYEKYRDCLTESNLIKVRALLVEPVINSYLLAERDLYLENPEIKIRILGEPKQKRKLVAEVSLQNPLPVALEGCTFTVEGAGLTEEQKTVEIPDPVEAGEEVKVRMDLLPLHMGLHKLVVNFESDKLKAVKGFRNVIIGPA
